No constants are given. Whether binding was seen depends on the method and setting. Binding seen in cells or lysates may run through a third protein. Some results given as binding are weak or reduced against the parent protein; the word gives no strength. For some of these results: Sequences can lack the tags named with a protein.
T1: flag-SHP (small heterodimer partner, NR0B2), adenovirally expressed (UniProt Q15466)
T1 sequence: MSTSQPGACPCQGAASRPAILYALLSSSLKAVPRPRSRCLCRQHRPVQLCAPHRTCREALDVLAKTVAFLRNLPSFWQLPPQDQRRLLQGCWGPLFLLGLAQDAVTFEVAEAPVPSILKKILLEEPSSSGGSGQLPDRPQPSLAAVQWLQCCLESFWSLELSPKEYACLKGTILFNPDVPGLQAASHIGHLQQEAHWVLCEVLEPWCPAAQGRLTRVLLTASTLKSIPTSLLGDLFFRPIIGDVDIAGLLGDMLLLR

T2: SHP, endogenous in mouse liver (mouse (endogenous in mouse liver)) (UniProt Q62227)
T2 sequence: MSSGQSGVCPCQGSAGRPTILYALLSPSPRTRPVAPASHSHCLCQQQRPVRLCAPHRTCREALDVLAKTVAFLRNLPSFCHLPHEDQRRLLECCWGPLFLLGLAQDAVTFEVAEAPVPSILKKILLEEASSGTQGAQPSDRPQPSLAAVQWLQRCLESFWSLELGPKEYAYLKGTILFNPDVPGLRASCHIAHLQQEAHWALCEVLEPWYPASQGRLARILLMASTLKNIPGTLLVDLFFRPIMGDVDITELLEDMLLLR

T3: GST-SREBP-2 central domain fragment (amino acids 51-330) (UniProt Q12772)
T3 sequence: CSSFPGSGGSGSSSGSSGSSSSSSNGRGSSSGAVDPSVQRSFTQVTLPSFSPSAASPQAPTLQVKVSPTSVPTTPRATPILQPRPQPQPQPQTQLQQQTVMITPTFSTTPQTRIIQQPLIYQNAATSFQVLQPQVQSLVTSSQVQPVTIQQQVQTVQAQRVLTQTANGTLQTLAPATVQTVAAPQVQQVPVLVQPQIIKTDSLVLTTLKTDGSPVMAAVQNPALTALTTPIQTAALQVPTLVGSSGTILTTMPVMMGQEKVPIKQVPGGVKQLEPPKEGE

T4: GST-SREBP-2 (amino acids 1-480) (UniProt Q12772)
T4 sequence: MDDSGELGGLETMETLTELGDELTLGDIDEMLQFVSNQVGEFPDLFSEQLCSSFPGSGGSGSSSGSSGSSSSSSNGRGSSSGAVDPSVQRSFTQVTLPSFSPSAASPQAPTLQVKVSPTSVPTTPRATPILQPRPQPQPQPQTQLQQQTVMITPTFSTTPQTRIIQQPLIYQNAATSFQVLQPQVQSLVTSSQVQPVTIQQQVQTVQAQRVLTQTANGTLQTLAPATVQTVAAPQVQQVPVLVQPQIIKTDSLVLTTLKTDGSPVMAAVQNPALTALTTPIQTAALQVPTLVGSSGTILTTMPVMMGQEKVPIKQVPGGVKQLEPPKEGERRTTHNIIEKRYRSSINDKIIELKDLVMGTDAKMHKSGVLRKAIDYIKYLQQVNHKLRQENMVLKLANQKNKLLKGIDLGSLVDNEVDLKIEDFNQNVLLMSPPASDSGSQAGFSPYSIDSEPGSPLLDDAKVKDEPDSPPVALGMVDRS

B1: SREBP-2, endogenous in mouse liver (protein, UniProt Q3U1N2 1-1130)
chain: MDESSELGVLETMETLTELGDELTLGDIDEMLQFVSNQVGEFPDLFSEQLCSSFPGGGSNGGSGNNSSGRGNNGGATDPAVQRSFSQVPLSTFSPSAASPQAPALQVKVSPTPPRATPVLQPRPQPQPQPPAQLQQQTVMITPTFSTAPQTRIIQQPLIYQNAATSFQVLQPQVQSLVTSPQVQPVTIQQQVQTVQAQRVLTQTANGTLQTLAPATVQTVAAPQVQQVPVLVQPQIIKTDSLVLTTLKTDGSPVMAAVQNPALTALTAPIQTAALQVPTLVGSNGTILTTMPVMMGQEKVPIKQVPGGVKQLDPPKEGERRTTHNIIEKRYRSSINDKIIELKDLVMGTDAKMHKSGVLRKAIDYIKYLQQVNHKLRQENMVLKLANQKNKLLKGIDLGSLVDSDVDLKIDDFNQNVLLMSPPASDSGSQAGFSPYSIDSEPGSPLLDDAKVKDEPDSPPVALGMVDRSRILLCVLTFLGLSFNPLTSLLQWGGAHNTDQHPYSGSGRSVLSLESGAGGWFDWMVPTLLLWLVNGVIVLSVFVKLLVHGEPVIRPHSRPSVTFWRHRKQADLDLAKGDFAAAAANLQTCLSVLGRALPTSRLDLACSLSWNVIRYSLQKLRLVRWLLKKVFQRWRATPATAAGFEDEAKSSARDAALAYHRLHQLHITGKLPAGSACSDVHMALCAVNLAECAEEKILPSTLIEIHLTAAMGLKTRCGGKLGFLASYFLNRAQSLCGPEHSTVPDSLRWLCHPLGQKFFMERSWSIKSAAKESLYCAQRSPADPIAQVHQAFCKNLLERAVESLVKPQAKKKAGDQEEESCEFSSALEYLKLLHSFVDSVGFVTSPFSSSSVLRSALGPDVICRWWTSAVTMAISWLQGDDAAVRSRFTEVERVPKALEVTESPLVKAVFYTCRAMHASLSGKADGQQNSFCHCERASGHLWSSLNVSGTTSDPSLNHVIQLFTCDLLLSLRTALWQKQASASQLLGETYHASGTELAGFQRDLGSLRRLAHSFRPAYRKVFLHEATVRLMAGASPTRTHQLLEHSLRRRPTQNTKHGEVDTWPGQRERATAILLACRHLPLSFLSSPGQRAVLLAEAARTLEKVGDRRSCSDCQQMIVKLGGGTAIAAS
B2: SHP synthesized by TNT (protein, UniProt Q15466 1-257)
chain: T1 sequence

Experiments:
[1] = biological target: T1, flag-SHP (small heterodimer partner, NR0B2), adenovirally expressed; assay: co-IP; liver (nuclear) extracts of mice injected with adenovirus for SHP WT or T55A, 1 week later treated with vehicle or FGF19 for 2 h; extracts in 50 mM Tris-HCl pH 8.0, 150 mM NaCl, 2 mM EDTA, 0.5 % NP40, 10 % glycerol
[2] = biological target: T2, SHP, endogenous in mouse liver (mouse (endogenous in mouse liver)); assay: co-IP; endogenous proteins in liver nuclear extracts of mice fasted 12 h and then fed or fasted for 6 h; extracts in 50 mM Tris-HCl pH 8.0, 150 mM NaCl, 2 mM EDTA, 0.5 % NP40, 10 % glycerol
[3] = biological target: T3, GST-SREBP-2 central domain fragment (amino acids 51-330); assay: pull-down; partially purified GST-fusion proteins incubated with the reciprocal protein synthesized by TNT; bound protein detected by immunoblot; only the target purified
[4] = biological target: T4, GST-SREBP-2 (amino acids 1-480); assay: as above

Binder | binding [1] | binding [2] | binding [3] | binding [4]
B1 | binds | binds | – | –
B2 | – | – | binds | binds

— article PMC4669652
